According to article PMC10641623:
These are yes or no findings as the source states them, for the method shown. Some entries that bind do so weakly or less than the wild type.

Sequences of proteins named here, by UniProt entry; tags and fusion partners are left off.
UniProt P19073: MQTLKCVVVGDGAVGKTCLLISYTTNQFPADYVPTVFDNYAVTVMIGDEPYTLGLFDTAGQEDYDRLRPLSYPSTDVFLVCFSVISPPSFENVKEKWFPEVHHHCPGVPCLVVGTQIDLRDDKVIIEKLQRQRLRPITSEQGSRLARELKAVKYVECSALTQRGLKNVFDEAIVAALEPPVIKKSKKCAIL

Target: Cdc42p (S. cerevisiae) (UniProt P19073)
Test: two-hybrid; yeast two-hybrid between Cdc42p and Bem4p, in WT cells and in cells overexpressing RDI1; performed as described in ref. 29

binding: binds
B1: Bem4p (protein, UniProt P39011 1-633)
chain: MDYEEILFGLQPILNASSIKDVPMNDVYLGSYLAVMDQLAVSLREPSNRDIVGKTGLLLNLVRVLEQALDICFHDTSISINDKIAFYEISSEVIRCIANAIIDNDDNREILLDSGGKKLLNYYIGGVLQLDEISSDKSEDSLVDKLQMRSVVLLRNFCIGNLKYTENLAPFIRGPLFVLLKTTQYSYLSSPEKVVLGSDLLNDILKVNYSNVQISDLFFLSQYIKKISSNVQNKELQAMEDGAVEAYSNTETQKFAGQGNQEYIEKEEEDDEEDVNCELLLNLSTCLETIVAKDETINFTNEEQLVLSMQKNLILSLVCLESKTFNNKLIVMRRLISCAGNISANLTNSNKREQSLCIETIKSSASSYALAAALMILCNSVASKSDAVALLKLISLSELIQVGSLLQDPLQYQGFLDLLRKLLNLENTMWLDIKDLFTLFQIMRRCHEQTKYYNNLRSLLTNLLNKTLTVLPSSKIHNSISSDPTIISFIAEHGTLTSCIAMDKLLVSKKALPKEAITSLWDSIFKFQNLGQAEQLSISDLFHITKTVGIYLKDSSVTADVNPIENILFKDYIQKLTLILETILSFKENKDKGSESCFNNGKFIAGIILNIVKNTKCLTPEEQNLEALAKSFF
